The whole screen tested about 330,000 compounds, of which about 7,700 (2.3%) were called active. Inconclusive results, whose numbers are uncertain, are shown with a selection of clear calls. The call rests on the fitted dose curve; in most records, active means well fitted inhibition curve with a large enough effect; inconclusive means small, poorly fitted or top-dose-only effect, or effect the other way; inactive means flat fitted curve, though single readings scatter. Potencies beside an inconclusive call are fits to weak or partial responses and may not hold up.
assay: qHTS screen for small molecules that inhibit ELG1-dependent DNA repair in human embryonic kidney (HEK293T) cells expressing luciferase-tagged ELG1; conditions: HEK293T ELG1-luciferase reporter, luminescence, 16 h, DNA damage induced by 5-fluorouridine; series mostly up to 46.1 µM; further: nearly all actives have a fitted effect of over 55% in size
In short: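 Cells (2,000 per well) received 5-fluorouridine plus test compound or DMSO and were incubated 16 hr at 37 °C, 5% CO2. Luciferase activity was read by luminescence 30 min after ONE-Glo addition; signal suppression marked inhibition of damage-induced ELG1 function.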
Potency means the concentration at half of the fitted maximal effect.

**Q.** For Cc1cc(C(=O)NNc2c(Cl)cccc2Cl)no1, which Potency is on record?
**A.** inactive

**Q.** For CNc1nc(N2CCc3ccccc32)ncc1F, which Potency is on record?
**A.** inconclusive: 6.51 µM [activator, partial curve]

**Q.** With COc1ccc(OC)c(Nc2ncnc3sc(-c4ccccc4)cc23)c1 as the compound, how does the Potency read?
**A.** inactive

**Q.** For O=C(CN1C(=O)c2ccccc2S1(=O)=O)NCc1ccccn1, which Potency is on record?
**A.** inactive

**Q.** For CCN(CC)C(=O)C[n+]1cccc(C(N)=O)c1, which Potency is on record?
**A.** inactive

**Q.** With CCC(=O)N1CCc2cc(S(=O)(=O)N3CCc4ccccc4C3)ccc21 as the compound, how does the Potency read?
**A.** inconclusive: 29.1 µM [activator, partial curve, poor fit]

**Q.** Which Potency does the source give for C=CCc1ccccc1OCC(=O)NNC(=S)NCc1ccccc1 here?
**A.** inactive

**Q.** For Cc1ccc(C)c(S(=O)(=O)NCc2ccc(C(=O)N3CCCCC3C)cc2)c1 (stereo not drawn), which Potency is on record?
**A.** inconclusive: 11.6 µM [inhibitor, partial curve]

**Q.** Which Potency does the source give for COc1ccc2c(=O)c(C(=O)NCCc3ccccc3)c[nH]c2c1 here?
**A.** inconclusive: 10.3 µM [activator, partial curve]

**Q.** For Cc1ccc(-n2nnc(-c3cnc4ccccc4c3)n2)cc1, which Potency is on record?
**A.** inconclusive: 1.03 µM [activator, full curve]

**Q.** With CCN(CC)CCSc1nc2ccccc2n1Cc1ccccc1 as the compound, how does the Potency read?
**A.** inactive

**Q.** For c1ccc(CCCNc2ncccn2)cc1, which Potency is on record?
**A.** inconclusive: 14.6 µM [activator, partial curve]

**Q.** With CCn1cc(C(=O)OCC(=O)NCc2ccccc2Cl)c(=O)c2ccc(C)nc21 as the compound, how does the Potency read?
**A.** inconclusive: 20.6 µM [inhibitor, single point]

**Q.** Which Potency does the source give for CCOC(=O)c1c(C)[nH]c(C(=O)COC(=O)CSC)c1C here?
**A.** inactive

**Q.** Which Potency does the source give for CCn1c(C)nc2c(C)[n+](CC(=O)c3ccc(Br)cc3)ccc21 here?
**A.** inconclusive: 2.59 µM [activator, partial curve]

**Q.** Which Potency does the source give for C=C1CCN([C@@H](C)C(=O)NCc2ccc(Cl)cc2)S(=O)(=O)c2ccccc21 here?
**A.** inconclusive: 29.1 µM [inhibitor, single point]

**Q.** For CCC(C)c1ccccc1NC(=O)COC(=O)C1=NN(c2ccccc2)C(=O)CC1 (stereo not drawn), which Potency is on record?
**A.** inconclusive: 16.4 µM [activator, partial curve, poor fit]

**Q.** Which Potency does the source give for COc1ccc(NC(=O)c2cccnc2)cc1 here?
**A.** inconclusive: 23.1 µM [activator, single point]

**Q.** For CCOc1ccc(S(=O)(=O)NCCC(=O)NCCc2ccc(C(C)C)cc2)cc1, which Potency is on record?
**A.** inconclusive: 25.9 µM [inhibitor, single point]

**Q.** Which Potency does the source give for CCN=c1scc(-c2ccc3c(c2)NC(=O)CO3)n1N=C1CCCC1 here?
**A.** inconclusive: 13 µM [inhibitor, partial curve]

**Q.** For O=C(NC(=S)Nc1cccc2cc(O)ccc12)c1ccccc1Br, which Potency is on record?
**A.** inactive

**Q.** Which Potency does the source give for CSc1nc2ccc(NC(=O)c3nn(C(C)C)c(=O)c4ccccc34)cc2s1 here?
**A.** inconclusive: 18.4 µM [activator, partial curve]

**Q.** With C=CCNC(=O)c1ccccc1NC(=O)C1COc2ccccc2O1 (stereo not drawn) as the compound, how does the Potency read?
**A.** inconclusive: 18.3 µM [inhibitor, partial curve]

**Q.** With COc1ccccc1N(C)S(=O)(=O)c1ccc(C(=O)Nc2nccs2)cc1 as the compound, how does the Potency read?
**A.** inconclusive: 18.3 µM [inhibitor, single point]

**Q.** For Cc1ccc(-n2cc(C(=O)c3ccccc3O)cn2)cc1, which Potency is on record?
**A.** inconclusive: 1 µM [activator, partial curve, poor fit]

**Q.** With COc1ccc(NC(=O)c2cc(Cl)ccc2Cl)c([N+](=O)[O-])c1 as the compound, how does the Potency read?
**A.** inactive

**Q.** Which Potency does the source give for Clc1cccc(CN2CCc3c([nH]c4ccccc34)C2)c1Cl here?
**A.** inconclusive: 5.8 µM [inhibitor, partial curve, poor fit]

**Q.** Which Potency does the source give for CC(C)c1ccc(NS(=O)(=O)c2ccc(N3C(=O)CCC3=O)cc2)cc1 here?
**A.** inconclusive: 18.3 µM [inhibitor, single point]

**Q.** With COc1cccc(OC)c1C(=O)NC(=S)Nc1ccc2c(c1)C(=O)N(C)C2=O as the compound, how does the Potency read?
**A.** inactive

**Q.** With Cc1ccc(NC(=O)CN(C)C(=O)Cc2ccc3c(c2)CCC3)cc1 as the compound, how does the Potency read?
**A.** inactive

**Q.** For Cc1ccccc1C(=O)NC(=S)Nc1ccccc1N1CCCC1, which Potency is on record?
**A.** inactive

**Q.** Which Potency does the source give for Nc1cccc(CCc2nc3ccccc3[nH]2)c1 here?
**A.** inconclusive: 20.6 µM [activator, single point]

**Q.** Which Potency does the source give for COCCCNC(=O)C[C@H]1C[C@H](C(=O)N2CCOCC2)[C@@]2(C)c3[nH]c4cc(CCC(=O)N(C)C)ccc4c3CCN2C1=O here?
**A.** inconclusive: 23.1 µM [activator, partial curve, poor fit]

**Q.** With COc1ccc(NC(=O)Cn2nnc(-c3ccccc3NC(=O)C3CC3)n2)cc1 as the compound, how does the Potency read?
**A.** inconclusive: 25.9 µM [inhibitor, single point]

**Q.** For COc1ccc2oc(C(=O)OCC(=O)NCCN3C(=O)CSC3=O)c(C)c2c1, which Potency is on record?
**A.** inconclusive: 11.6 µM [activator, partial curve, poor fit]

**Q.** With Cc1ccc(-c2cc3c(n2-c2ccc(C(=O)O)cc2)CCCC3=O)cc1 as the compound, how does the Potency read?
**A.** inconclusive: 18.4 µM [activator, partial curve]

**Q.** Which Potency does the source give for Cc1cc(O)ccc1Nc1nc2ccccc2nc1Nc1ccc(O)cc1C here?
**A.** inactive

**Q.** With Nc1cccc(C2=Nc3cccc4cccc(c34)N2)c1 as the compound, how does the Potency read?
**A.** inactive

**Q.** For CCN(CC(=O)Nc1ccc(NC(C)=O)cc1)C(=O)c1cc2c(s1)CCCCC2, which Potency is on record?
**A.** inconclusive: 5.01 µM [activator, partial curve]

**Q.** Which Potency does the source give for COc1cc(OC)cc(C(=O)N2CCCc3ccccc32)c1 here?
**A.** inconclusive: 16.4 µM [activator, single point]

**Q.** With CCCOc1ccc(C2=CSC3=NCCN23)cc1 as the compound, how does the Potency read?
**A.** inconclusive: 0.0517 µM [activator, full curve, poor fit]

**Q.** Which Potency does the source give for Cc1ccc(C(=O)Nc2cccc(C(=O)N/N=C/c3ccc(F)cc3)c2)cc1 here?
**A.** inconclusive: 5.17 µM [activator, full curve]

**Q.** With CCOC(=O)CSc1ncnc2c1cnn2-c1ccc(Cl)cc1 as the compound, how does the Potency read?
**A.** inconclusive: 29.1 µM [activator, single point]

**Q.** With CC(C)(C)C(=O)Nc1ccc(C(=O)CSc2nnc(C3CC3)n2C2CC2)cc1 as the compound, how does the Potency read?
**A.** inactive

**Q.** For Cc1ccc(CC2CC(=O)N(c3ncccn3)C2=O)cc1 (stereo not drawn), which Potency is on record?
**A.** inconclusive: 16.4 µM [activator, partial curve, poor fit]

**Q.** For CC1=C(C(=O)OCc2ccccc2)C(c2ccc3ccccc3c2)NC(=O)N1CCCC(=O)O (stereo not drawn), which Potency is on record?
**A.** inactive

**Q.** For COc1cc(CNc2ccc3[nH]c(=O)[nH]c3c2)ccc1OCC(=O)NC(C)(C)C, which Potency is on record?
**A.** inactive

**Q.** For Cc1ccc(-c2ocnc2C(=O)Nc2ccccc2NC(=O)c2ccccn2)cc1, which Potency is on record?
**A.** inactive

**Q.** Which Potency does the source give for Cc1c([N+](=O)[O-])c(C(=O)NC2CCCCC2)nn1C here?
**A.** inactive

**Q.** Which Potency does the source give for C[C@@]12C(=O)Nc3cc(F)ccc3C(=O)N1[C@H]1c3cc(Br)ccc3OC[C@@H]1[C@@H]2c1ccccc1 here?
**A.** inactive

**Q.** For COCc1cc(C)n(CC(=O)Nc2ccc(N3CCOCC3)cc2)c(=O)c1C#N, which Potency is on record?
**A.** inactive

**Q.** With CCOC(=O)C1(Cc2ccccc2)CCN(Cc2ccc(C3CCCCO3)s2)CC1 (stereo not drawn) as the compound, how does the Potency read?
**A.** inconclusive: 20.6 µM [inhibitor, partial curve, poor fit]

**Q.** Which Potency does the source give for COC(=O)c1ccc(NC(=O)CCN2C(=O)C3CC=CCC3C2=O)cc1 (stereo not drawn) here?
**A.** inconclusive: 13 µM [activator, single point]

**Q.** With CCOc1ccccc1-c1nc(-c2cc3ccccc3nc2OC)no1 as the compound, how does the Potency read?
**A.** inconclusive: 25.1 µM [inhibitor, single point]

**Q.** Which Potency does the source give for Cn1cc(/C=C(\C(=O)O)C(C(=O)O)=C2CCCCC2)c2ccccc21 here?
**A.** inactive

**Q.** With CC1CCN(CC(O)COc2ccc(C(=O)c3ccccc3)cc2)CC1 (stereo not drawn) as the compound, how does the Potency read?
**A.** inconclusive: 12.6 µM [inhibitor, single point]

**Q.** Which Potency does the source give for CCn1c(SCC(=O)N/N=C/c2cc(OC)c(OC)c(OC)c2)nc2ccccc21 here?
**A.** inconclusive: 18.4 µM [inhibitor, partial curve]

**Q.** For N#Cc1ccccc1COC(=O)c1cc(=O)c2ccccc2o1, which Potency is on record?
**A.** inconclusive: 16.4 µM [activator, single point]

**Q.** With CC(=O)Nc1ccc(N2CCOCC2)c([N+](=O)[O-])c1 as the compound, how does the Potency read?
**A.** inactive

**Q.** Which Potency does the source give for COc1cccc(CN2CC(C(=O)NCCCCc3ccccn3)CCC2=O)c1 (stereo not drawn) here?
**A.** inactive

**Q.** For Cc1sc(N/N=C/c2ccco2)nc1-c1ccccc1, which Potency is on record?
**A.** inconclusive: 20.6 µM [activator, single point]

**Q.** Which Potency does the source give for CCOC(=O)c1cc(C(C)=O)n2ccccc12 here?
**A.** inactive

**Q.** Which Potency does the source give for O=C(CCCc1ccccc1)N1CCN(C2CCCCC2)CC1 here?
**A.** inconclusive: 20.6 µM [activator, single point]

**Q.** With O=C(NCc1ccco1)c1cnn2c(C(F)(F)F)cc(-c3ccco3)nc12 as the compound, how does the Potency read?
**A.** inconclusive: 23.1 µM [inhibitor, partial curve]

**Q.** With CN(c1ccccc1)S(=O)(=O)c1cccc(C(=O)NCC(=O)Nc2ccc(F)c(F)c2F)c1 as the compound, how does the Potency read?
**A.** inconclusive: 20.6 µM [inhibitor, single point]

**Q.** For Fc1ccc(CN2CCN(c3ncccn3)CC2)c(F)c1, which Potency is on record?
**A.** inactive

**Q.** Which Potency does the source give for Oc1ccccc1/C=N/Nc1ccccc1 here?
**A.** inconclusive: 13 µM [activator, partial curve]

**Q.** For O=C(CSc1ccccn1)c1ccc(F)cc1, which Potency is on record?
**A.** inconclusive: 14.6 µM [activator, partial curve]

**Q.** For CC(C)(c1ccccc1)c1ccc(OCCN2CCCC2)cc1, which Potency is on record?
**A.** inactive

**Q.** Which Potency does the source give for N#C/C(=C\c1cc(Cl)c(OCc2ccc(Cl)cc2)c(Cl)c1)C(N)=O here?
**A.** inconclusive: 14.6 µM [activator, partial curve]

**Q.** For COc1ccc(CCNC(=O)Cc2cc(OCc3ccccc3)c(OC)cc2[N+](=O)[O-])cc1OC, which Potency is on record?
**A.** inconclusive: 32.6 µM [inhibitor, partial curve, poor fit]

**Q.** For O=C(CSc1nc2ccccc2c(=O)n1Cc1ccco1)NCc1ccco1, which Potency is on record?
**A.** inactive

**Q.** For COc1cccc(CN(C)C(=O)c2[nH]c(C)c(C(C)=O)c2C)c1OC, which Potency is on record?
**A.** inconclusive: 4.11 µM [inhibitor, full curve]
